Measured values: ChEMBL document CHEMBL3046439, “Spectroscopic characterization of novel d-amino acid-Schiff bases and their Cr(III) and Ni(II) complexes as antimicrobial agents” (2013)

Tested on: Candida albicans
Assay: Antimicrobial activity against Candida albicans Y-1200-NIH assessed as diameter of growth inhibition zone at 100 ug after 24 hr by well-diffusion method
Type: functional, organism-based

Sequence: NYSTATIN
- inhibition zone (IZ): 20 mm
